PubChem BioAssay AID1259405 – NCATS, 2018
Screen: 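Knock-downs that lift recombinant protein yield in hamster ovary cells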 (primary screen). Cell system: Chinese hamster CHO-K1 ovary cells with stable secreted eGFP expression. Reagents: single siRNA against mouse genes, 0.8 pmol siRNA per well (2 µl of 400 nM stock). Timing: 3 days. Measurement: 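Per-well intracellular GFP measured by laser scanning cytometry, plus viability from ATP luminescence, each relative to plate median of non-targeting control wells, in %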. Reading the numbers: GFP, % of control: higher = more GFP per well, higher productivity. Active means: 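Called active when intracellular GFP, relative to negative control, is at or above 120%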.
Here is an unselected part of about 50,000 reagents. Over the whole deposit, about 4,000 (8%) are marked active. 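Mouse siRNA library applied to hamster cells; one well for each siRNA.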 The numbers tell different reagents against one gene apart. Further read-outs or replicates are left out here.

GFP, % of control, by gene symbol and reagent
Glrx (glutaredoxin): #1 95.7 inactive; #2 107 inactive; #3 71.1 inactive
Ddit4l (DNA-damage-inducible transcript 4-like): #1 104 inactive; #2 93.9 inactive; #3 113 inactive
Eid3 (EP300 interacting inhibitor of differentiation 3): #1 73.2 inactive; #2 117 inactive; #3 82.4 inactive
Rpe (ribulose-5-phosphate-3-epimerase): #1 102 inactive; #2 51.7 inactive; #3 64.3 inactive
Kif15 (kinesin family member 15): #1 97.1 inactive; #2 86 inactive
Slc10a2: #1 70.3 inactive; #2 55 inactive; #3 84.8 inactive
Lig1 (ligase I, DNA, ATP-dependent): #1 96.1 inactive; #2 77.4 inactive; #3 65.9 inactive
Id3 (inhibitor of DNA binding 3): #1 67 inactive; #2 79.5 inactive; #3 115 inactive
Inpp4a (inositol polyphosphate-4-phosphatase, type I): #1 37 inactive; #2 94.5 inactive; #3 77.9 inactive
Or6c66b (olfactory receptor family 6 subfamily C member 66B): #1 105 inactive; #2 48.3 inactive; #3 96.8 inactive
2610524H06Rik (RIKEN cDNA 2610524H06 gene): #1 78.3 inactive; #2 71.4 inactive; #3 89.1 inactive
Samd4 (sterile alpha motif domain containing 4): #1 73 inactive; #2 71.7 inactive; #3 68 inactive
Rnf144a (ring finger protein 144A): #1 91.6 inactive; #2 112 inactive; #3 116 inactive
Dtx2 (deltex 2, E3 ubiquitin ligase): #1 103 inactive; #2 107 inactive
Supt16 (SPT16, facilitates chromatin remodeling subunit): #1 45.4 inactive; #2 79.8 inactive
Mrps7 (mitchondrial ribosomal protein S7): #1 70 inactive; #2 63.5 inactive; #3 50.9 inactive
Tasor2 (transcription activation suppressor family member 2): #1 39.6 inactive; #2 89.1 inactive; #3 92.3 inactive
Uck2 (uridine-cytidine kinase 2): #1 96.4 inactive; #2 64.1 inactive; #3 101 inactive
Or2m13 (olfactory receptor family 2 subfamily M member 13): #1 92.7 inactive; #2 74.8 inactive; #3 71 inactive
Zfp804a (zinc finger protein 804A): #1 92.7 inactive; #2 36.4 inactive; #3 74.5 inactive
Rhno1 (RAD9-HUS1-RAD1 interacting nuclear orphan 1): #1 30.2 inactive; #2 115 inactive; #3 95.4 inactive
Tnpo1 (transportin 1): #1 45.2 inactive; #2 85.7 inactive; #3 65.9 inactive
Tas2r115 (taste receptor, type 2, member 115): #1 78.8 inactive; #2 55.6 inactive; #3 89.5 inactive
Skint10 (selection and upkeep of intraepithelial T cells 10): #1 70.6 inactive; #2 70.4 inactive; #3 91.8 inactive
Clmb (calcimembrin): #1 86.3 inactive; #2 71.5 inactive; #3 90.7 inactive
Dock2 (dedicator of cyto-kinesis 2): #1 132 active; #2 128 active; #3 82.1 inactive
Irgm1 (immunity-related GTPase family M member 1): #1 40.5 inactive; #2 72 inactive; #3 95.5 inactive
Mcm3 (minichromosome maintenance complex component 3): #1 96.8 inactive; #2 39 inactive; #3 57.5 inactive
C1qtnf9 (C1q and tumor necrosis factor related protein 9): #1 91.3 inactive; #2 96.6 inactive; #3 71.7 inactive
Lmln (leishmanolysin-like (metallopeptidase M8 family)): #1 79.3 inactive; #2 51.4 inactive
Tgfbr2 (transforming growth factor, beta receptor II): #1 111 inactive; #2 71.9 inactive; #3 66.4 inactive
Tbc1d25 (TBC1 domain family, member 25): #1 99 inactive; #2 113 inactive; #3 56.9 inactive
Slc44a1: #1 137 active; #2 26.5 inactive; #3 77.8 inactive
Dnai4 (dynein axonemal intermediate chain 4): #1 92.9 inactive; #2 65.8 inactive; #3 129 active
Zfp998 (zinc finger protein 998): #1 18.9 inactive; #2 88.3 inactive; #3 67.4 inactive
Jakmip1 (janus kinase and microtubule interacting protein 1): #1 91.3 inactive; #2 113 inactive; #3 61.3 inactive
Or6c208 (olfactory receptor family 6 subfamily C member 208): #1 39.8 inactive; #2 126 active; #3 91.7 inactive

14 entries already listed, sorted by “GFP, % of control”, descending.
gene symbol	reagent no.	GFP, % of control	activity call
Dock2 (dedicator of cyto-kinesis 2)	1	132	active
Dock2 (dedicator of cyto-kinesis 2)	2	128	active
Skint10 (selection and upkeep of intraepithelial T cells 10)	3	91.8	inactive
Clmb (calcimembrin)	3	90.7	inactive
Tas2r115 (taste receptor, type 2, member 115)	3	89.5	inactive
Clmb (calcimembrin)	1	86.3	inactive
Dock2 (dedicator of cyto-kinesis 2)	3	82.1	inactive
Tas2r115 (taste receptor, type 2, member 115)	1	78.8	inactive
Irgm1 (immunity-related GTPase family M member 1)	2	72	inactive
Clmb (calcimembrin)	2	71.5	inactive
Skint10 (selection and upkeep of intraepithelial T cells 10)	1	70.6	inactive
Skint10 (selection and upkeep of intraepithelial T cells 10)	2	70.4	inactive
Tas2r115 (taste receptor, type 2, member 115)	2	55.6	inactive
Irgm1 (immunity-related GTPase family M member 1)	1	40.5	inactive
